Data on two substances can be found in article PMC13455383.

By UniProt entry, the sequences of proteins in these tests, tags left out.
UniProt P11166: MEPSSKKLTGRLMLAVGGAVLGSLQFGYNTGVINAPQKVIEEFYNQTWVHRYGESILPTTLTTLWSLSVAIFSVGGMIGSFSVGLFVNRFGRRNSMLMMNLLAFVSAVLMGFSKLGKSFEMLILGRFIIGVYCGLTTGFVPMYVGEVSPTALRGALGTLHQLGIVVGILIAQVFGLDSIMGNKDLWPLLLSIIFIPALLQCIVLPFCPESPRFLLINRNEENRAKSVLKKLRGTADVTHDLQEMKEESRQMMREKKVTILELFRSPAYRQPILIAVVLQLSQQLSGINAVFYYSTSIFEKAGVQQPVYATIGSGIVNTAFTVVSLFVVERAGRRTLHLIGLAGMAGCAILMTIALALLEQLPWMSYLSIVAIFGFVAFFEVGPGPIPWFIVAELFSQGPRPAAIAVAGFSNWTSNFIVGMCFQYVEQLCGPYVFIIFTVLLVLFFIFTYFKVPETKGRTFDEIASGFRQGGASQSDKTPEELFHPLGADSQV
UniProt P62820: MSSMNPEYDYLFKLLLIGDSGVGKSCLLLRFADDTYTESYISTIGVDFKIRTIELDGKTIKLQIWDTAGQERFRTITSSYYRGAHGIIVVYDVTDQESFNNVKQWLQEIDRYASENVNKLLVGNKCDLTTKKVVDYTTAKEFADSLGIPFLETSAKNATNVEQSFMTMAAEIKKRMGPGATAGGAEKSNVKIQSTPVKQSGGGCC
UniProt P20339: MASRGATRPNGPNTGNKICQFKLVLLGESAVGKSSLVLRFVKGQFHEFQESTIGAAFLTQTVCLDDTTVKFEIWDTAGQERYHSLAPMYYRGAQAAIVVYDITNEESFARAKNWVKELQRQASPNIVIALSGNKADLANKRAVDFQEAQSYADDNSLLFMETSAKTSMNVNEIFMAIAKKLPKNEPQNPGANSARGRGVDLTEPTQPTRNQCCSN

This assay concerns the target Flag-tagged GLUT1 (glucose transporter 1) (human) (UniProt P11166). As to the kind of experiment: co-IP; Flag-GLUT1-expressing 293T cells infected with S. Typhimurium (SCVs enriched with magnetic nanoparticles) or left uninfected; anti-Flag immunoprecipitation; immunoblotting for Rab1 and Rab5. For orientation: A western blot detects proteins with antibodies after separation by electrophoresis.

These are yes or no findings as the source states them, for the method shown. Binding seen in cells or lysates may run through a third protein. Some entries that bind do so weakly or less than the wild type.

Turning to Rab1A (from UniProt P62820 1-205), the binding result was “binds”.

Rab5A (from UniProt P20339 1-215): the binding entry is listed as “binds”.
